Source: publication PMC10163288
The other results are listed elsewhere or left out.

B1: il10ra_site1_normal_mot_HHH_b2_08144_af2_000000046_0001_38_52_H_._HHH_b1_06242_af2_0001_0000400022_0000001_0 (protein)
chain: SSSSDEMEQLFKLLREIAELLHDGDPEEARELIEEAKELAEELNNELARWQLEFLEREAKSSSSS
B2: il10ra_site1_sap_20_mot_HHH_b1_05083_af2_000000148_0001_42_57_H_._HHH_b1_04853_af2_0001_0000100004_0000001_0_0001 (protein)
chain: SSSSNESYRLSREANEELNEAWREGDDELLREIVKEVERLLEELNDPLALFVFRSVVEILRSSSS
B3: il10ra_site1_normal_mot_HEEHE_1605_000000211_0001_40_56_H_._6a4d44608330000f36d08f4dbbd7f703_0001_0001_0000500016_0000001_0 (protein)
chain: SVEEKLKELLEELGVPPHEIEVILFALERLAEQNGDPERAVRILSWSLQQAGNPELAEAVERALK
B4: il10ra_site1_normal_mot_e1dd4851c59bc1cdde016f988f6856bd_0001_1_000000200_0001_16_31_H_._HEEHE_1797_0001_0000300012_0000001_0_af2pred_0001 (protein)
chain: SDEERFKLAVEAIAELAGVPSVEVEEENGEITVTVEGTDEAVRRAELMVRFVARAAGLRVTVETR
B5: il10ra_site1_normal_mot_HHH_b2_03425_000000200_0001_22_39_H_._HHH_b1_08665_0001_0000100007_0000001_0 (protein)
chain: SSSSDELERIYELLREVIELIKEGDDEEAEELMKELEELIREANSPVMEVLLRFLERELNSSSSS
B6: il10ra_site1_normal_mot_HHH_b1_06994_000000193_0001_40_55_H_._HHH_b1_07438_0001_0000400027_0000002_1 (protein)
chain: SSSSSDQEEELVEAALRLAKQIDDPEARELILLAAEIRAEELNNEELEELVEEVKQELKSSSSSS
B7: il10ra_site1_normal_mot_HHH_b1_03342_000000127_0001_23_39_H_._ems_3hM_582_0001_0000600024_0000001_1 (protein)
chain: SSTVEELAREAEEILEELAKLNPEYEWAARFWEHILRYAVERNDERAVRAVFHAVRALEEALSSS
B8: il10ra_site1_normal_mot_be5bd3f495b2ba9d9abb66d04d14a4bf_0001_000000065_0001_37_51_H_._HHH_b1_01400_0001_0000200014_0000001_0 (protein)
chain: SSSSDEELERLVEEVVEKFKLSEEAKRSLEYLAEHQLELGASEEEIERSLEAAARLLQMSESSSS
B9: il10ra_site1_sap_23_mot_HHH_b1_06914_000000280_0001_1_18_H_._HHH_b1_03421_0001_0000100007_0000001_0_0001 (protein)
chain: SSSSDEEERIEELLEEAEELAKNGNPREAAHVLQEALRLIFQLGNEELMELLWKLAKKLGSSSSS
B10: il10ra_site1_normal_mot_HHH_b2_06795_000000133_0001_42_56_H_._HHH_b2_06257_0001_0000200018_0000001_0 (protein)
chain: SSSSSDTEEELAELFLRVAKLREEGDEEEAKKLLEEIERLAEESNDERAKQAVRFLRQLLSSSSS
B11: il10ra_site1_normal_mot_ems_3hM_235_000000244_0001_46_64_H_._HHH_b2_04059_0001_0000100001_0000001_0 (protein)
chain: SSSSDVLEEVWELLREAAELEARGNPEEAREVLQEALELAEENNNELARFVVEHKLRALESSSSS
B12: il10ra_site1_normal_mot_HHH_b1_01879_000000050_0001_1_18_H_._HHH_b1_01715_0001_0000200014_0000001_1_af2pred_0001 (protein)
chain: SSSSSSEVEEAEEEARQLYEEGDPKKALQVLAKAIRLAQELNDEELLRRLLRLIVELVGSSSSSS
B13: il10ra_site1_normal_mot_HHH_b2_00612_000000251_0001_1_14_H_._HHH_b2_04981_0001_0000500049_0000001_0 (protein)
chain: SSSSDEEFEEVRRLLERASELANEGDKEEAERLVEEAIELAREGGNQLLTESAEYLLRIIRSSSS
B14: il10ra_site1_sap_17_mot_HHH_b2_00984_000000042_0001_1_20_H_._HHH_b2_04529_0001_0000500016_0000002_0_0001_af2pred_0001 (protein)
chain: SSSSDEEEREEEFLELLIEALKIEDEEEAREVLRELEELLEELGDERLLELVRNALRLNESSSSS
B15: il10ra_site1_sap_14_mot_HHH_b1_03314_af2_000000278_0001_42_55_H_._HHH_b1_00297_af2_0001_0000200014_0000002_0_0001_af2pred_dldesign_0_af2pred (protein)
chain: SSSSAAARAFARETCQRLYELKKAGDEAGFEAAYAEARARLAAMGDPEALRLLEVTYELLSSSSS
B16: il10ra_site1_sap_26_mot_HHH_b2_03346_af2_000000019_0001_1_18_H_._HHH_b2_06191_af2_0001_0000200016_0000001_0_0001 (protein)
chain: SSSSDERRQELLRLLREAIRLALRGNPEEAERLLEEAERLAEELGDERALEMIRRLLEAIRSSSS
B17: il10ra_site1_sap_23_mot_HHH_b1_03574_000000194_0001_1_18_H_._HHH_b1_05868_0001_0000200012_0000002_0_0001 (protein)
chain: SSSSSDRDELYELIEEALELLARGNPEEAERVLEEARELAEELGNRVFLVVIRFLLKDIKSSSSS
B18: il10ra_site1_normal_mot_HHH_b1_01879_000000050_0001_1_18_H_._HHH_b1_05693_af2_0001_0000500020_0000001_0_af2pred_0001 (protein)
chain: SSSSDEEEIEELQKEAEELRERGNPEEALLVLAQAIILAQRLGNEELAEELLELLIEIFRNSSSS
B19: il10ra_site1_sap_29_mot_HHH_b1_03859_af2_000000004_0001_44_57_H_._HHH_b2_05239_0001_0000100007_0000001_0_0001_af2pred_0001 (protein)
chain: SSSSDEQNERAVRIALRFAREIDDEEYVRLALRFARFSAEELNDPELRRLVEEAEEELEKSSSSS
B20: il10ra_site1_normal_mot_HHH_b2_01235_000000294_0001_1_18_H_._HHH_b2_01483_0001_0000200021_0000001_0 (protein)
chain: SSSSTEESERVYELLKRVSELDLEGNPEEAREVLEEAQEIAEEANNLVLLATIESLERLLDSSSS
B21: il10ra_site1_normal_mot_HHH_b1_06816_000000239_0001_1_19_H_._HHH_b2_02034_0001_0000100005_0000001_0_af2pred_0001 (protein)
chain: SSSSSSDLEEQAEELLEEVEKIDNPEERTRVARKAIKLAVRAGNPELAREIARIATRLSSSSSSS
B22: il10ra_site1_sap_13_mot_HHH_b1_03277_000000286_0001_44_57_H_._HHH_b2_06223_af2_0002_0000300013_0000001_0_0001 (protein)
chain: SSSSDESQRVYELLREAAELHHNGDPEEAERVLEEAEEIVEELGSMNMRMVLEFLLRKVRESSSS
B23: il10ra_site1_sap_12_mot_HHH_b1_06819_af2_000000053_0001_23_38_H_._HHH_b1_06833_af2_0001_0000200005_0000001_0_0001 (protein)
chain: SSSSSEEQRLLELARELFRLMLRNDEEEARRVLEELLELAEQLGNEKVREMAEDLEKVLKSSSSS
B24: il10ra_site1_normal_mot_HHH_b1_08176_000000188_0001_1_20_H_._HHH_b2_05776_af2_0001_0000100004_0000001_0 (protein)
chain: SSSSNEELQEALELSLEALRLALRGNPEEAKEVLEKALELAERGNNPQLARQIEEMLRAQKSSSS
B25: il10ra_site1_sap_24_mot_HHH_b2_00800_af2_000000047_0001_1_20_H_._HHH_b1_03475_0001_0000600024_0000002_0_0001 (protein)
chain: SSSSSDVAELAQEALRLAFQNGDEEALQAVWRIVKRLARGLMDPEEAEELLQELIEELRSSSSSS
B26: il10ra_site1_normal_mot_HHH_b1_05937_af2_000000262_0001_20_37_H_._HHH_b1_01215_af2_0001_0000500035_0000001_0 (protein)
chain: SSSSDEVEERAEELIERIEELIENGNPEEALRLIIELLRLAFENRDEEIMKEAWRLAQLLRSSSS
B27: il10ra_site1_normal_mot_HHH_b2_00612_000000251_0001_1_14_H_._HHH_b1_00998_af2_0001_0000200009_0000002_0_af2pred_dldesign_0_af2pred (protein)
chain: SSSSSEEEVERRIEELLARAKAAGNPYLLESVEYLVARYRETGDPSCLEAAELALEQHEKLSSSS
B28: il10ra_site1_normal_mot_HHH_b2_00475_000000107_0001_44_57_H_._HHH_b2_03520_0001_0000100003_0000002_0 (protein)
chain: SSSSDAEEVAHLLFRAIELLFRGDKEEAEELVEEAKEIAEESNDPELQRYVEIAEHFVKAHSSSS
B29: il10ra_site1_sap_30_mot_HHH_b1_08001_000000032_0001_1_19_H_._HHH_b2_00086_0001_0000200010_0000001_1_0001 (protein)
chain: SEKEELEELLEELGVPPELIRQLRKAFRLQAEQGAPPETVVRALEMFVRARGDPLAEEALELFLK
B30: il10ra_site1_normal_mot_HHH_b1_02809_af2_000000277_0001_40_57_H_._HHH_b1_08623_0001_0000100005_0000002_0_af2pred_0001 (protein)
chain: SSSSSEEARKAAEFLLRAAEEIPDPEKARLAIRFAIHLAKYANDPELVEELEEVLRELERSSSSS
B31: il10ra_site1_normal_mot_HHH_b1_08411_af2_000000053_0001_1_20_H_._HHH_b2_04602_0001_0000100002_0000001_0 (protein)
chain: SSSSQESFEIARRAIERAIELARRGNPEEAEEVLREAEELVRELNDETTLWSLEFALRAESSSSS
B32: il10ra_site1_sap_14_mot_cff26900b2948c323735a169404cbef0_0001_1_000000271_0001_18_33_H_._4a6c97db08e0c392ed9b478c1fd9fef5_0001_1_0001_0000300022_0000001_0_0001_ … (protein)
chain: SSSSDERTHEIIKLIRRFVELLRNGDEEEAEEVVKEAEELAKEAGNRLFLFIIKFLKERNSSSSS
B33: il10ra_site1_normal_mot_HHH_b2_03220_af2_000000223_0001_23_40_H_._HHH_b1_01997_0001_0000400021_0000002_0 (protein)
chain: SSSSSTEENEEIWKLLHEALRIPDKEEAERLVEEAIEIAEEANNEVLLIQARFALRAIKLSSSSS
B34: il10ra_site1_sap_13_mot_HHH_b1_06788_af2_000000238_0001_19_36_H_._HHH_b1_06454_af2_0001_0000600013_0000001_0_0001 (protein)
chain: SSSSDEEEQRVLELLKRANRLAFRGNPEEARELVEEAEEIAKELGDPALEEAVEIVKRFVKSSSS
B35: il10ra_site1_sap_28_mot_HHH_b1_05021_af2_000000167_0001_42_56_H_._HHH_b2_07882_af2_0001_0000700011_0000001_0_0001 (protein)
chain: SSSSSEAARELYELSREAAELHHEGNPEEARKVLEEAFELAEEAGNWNFLWVIRMLLELLSSSSS
B36: il10ra_site1_sap_21_mot_HHH_b1_05303_af2_000000175_0001_41_57_H_._HHH_b2_05875_af2_0001_0000400032_0000001_0_0001 (protein)
chain: SSSSSEEEERIERLLEEIRELLEEGDYREASQLLQEATHLALRASNKELLQEIWELVQEVASSSS
B37: il10ra_site1_normal_mot_HHH_b1_01082_af2_000000031_0001_3_19_H_._HHH_b2_03832_af2_0001_0000500020_0000001_0 (protein)
chain: SSSSSNEYEEVKRAIEEAIRLYREGNPEEARRLLEEVIEEAEEAGNFAAVWSLEHLLRLLSSSSS

Each binder was assayed against il10ra, Q13651 (assay: yeast display titration).

Apparent Kd, inactive:
B1 no binding seen
B2 no binding seen
B3 no binding seen
B4 no binding seen
B5 no binding seen
B6 no binding seen
B7 no binding seen
B8 no binding seen
B9 no binding seen
B10 no binding seen
B11 no binding seen
B12 no binding seen
B13 no binding seen
B14 no binding seen
B15 no binding seen
B16 no binding seen
B17 no binding seen
B18 no binding seen
B19 no binding seen
B20 no binding seen
B21 no binding seen
B22 no binding seen
B23 no binding seen
B24 no binding seen
B25 no binding seen
B26 no binding seen
B27 no binding seen
B28 no binding seen
B29 no binding seen
B30 no binding seen
B31 no binding seen
B32 no binding seen
B33 no binding seen
B34 no binding seen
B35 no binding seen
B36 no binding seen
B37 no binding seen

Quoted from above for reference:
Apparent Kd, inactive:
B10 no binding seen
B11 no binding seen
B12 no binding seen
